Data: PMC10389835
Results are given in words; binding and its absence hold for the method and conditions named. Binding seen in cells or lysates may run through a third protein. Some entries that bind do so weakly or less than the wild type.

The chains behind the UniProt entries cited, without tags or fusion partners.
UniProt Q96KQ7: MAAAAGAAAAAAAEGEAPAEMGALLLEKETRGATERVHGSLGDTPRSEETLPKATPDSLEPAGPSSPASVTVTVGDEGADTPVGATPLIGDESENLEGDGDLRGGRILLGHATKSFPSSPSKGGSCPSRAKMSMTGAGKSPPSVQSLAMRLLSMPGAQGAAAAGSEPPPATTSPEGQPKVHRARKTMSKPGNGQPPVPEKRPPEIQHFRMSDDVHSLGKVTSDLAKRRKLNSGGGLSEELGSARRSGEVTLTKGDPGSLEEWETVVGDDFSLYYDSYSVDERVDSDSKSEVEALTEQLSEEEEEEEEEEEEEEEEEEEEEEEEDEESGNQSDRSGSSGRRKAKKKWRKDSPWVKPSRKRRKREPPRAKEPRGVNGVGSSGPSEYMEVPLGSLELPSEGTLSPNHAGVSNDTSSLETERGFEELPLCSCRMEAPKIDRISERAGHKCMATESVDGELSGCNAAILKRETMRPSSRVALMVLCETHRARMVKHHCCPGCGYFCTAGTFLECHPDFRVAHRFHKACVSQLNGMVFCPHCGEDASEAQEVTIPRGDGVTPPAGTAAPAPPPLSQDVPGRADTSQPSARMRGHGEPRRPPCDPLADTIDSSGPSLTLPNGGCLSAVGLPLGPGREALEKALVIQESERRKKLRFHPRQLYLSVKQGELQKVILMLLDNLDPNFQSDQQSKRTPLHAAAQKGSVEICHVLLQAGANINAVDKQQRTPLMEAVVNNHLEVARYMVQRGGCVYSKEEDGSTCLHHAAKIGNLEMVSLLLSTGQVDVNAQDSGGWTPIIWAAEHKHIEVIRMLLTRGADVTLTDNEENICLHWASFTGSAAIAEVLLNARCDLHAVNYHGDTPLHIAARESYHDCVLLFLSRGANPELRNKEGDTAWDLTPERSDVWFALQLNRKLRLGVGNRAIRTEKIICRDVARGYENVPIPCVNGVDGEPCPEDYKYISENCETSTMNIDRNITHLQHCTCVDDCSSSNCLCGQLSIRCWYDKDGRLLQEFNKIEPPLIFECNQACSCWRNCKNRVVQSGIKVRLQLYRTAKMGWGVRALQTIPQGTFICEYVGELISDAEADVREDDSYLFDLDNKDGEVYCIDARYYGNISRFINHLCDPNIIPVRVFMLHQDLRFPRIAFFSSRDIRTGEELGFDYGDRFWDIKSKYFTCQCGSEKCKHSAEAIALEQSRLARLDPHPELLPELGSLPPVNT

Molecular target: T1, activating transcription factor 7 (ATF7) (human (endogenous in HDF)) (UniProt P17544)
T1 sequence: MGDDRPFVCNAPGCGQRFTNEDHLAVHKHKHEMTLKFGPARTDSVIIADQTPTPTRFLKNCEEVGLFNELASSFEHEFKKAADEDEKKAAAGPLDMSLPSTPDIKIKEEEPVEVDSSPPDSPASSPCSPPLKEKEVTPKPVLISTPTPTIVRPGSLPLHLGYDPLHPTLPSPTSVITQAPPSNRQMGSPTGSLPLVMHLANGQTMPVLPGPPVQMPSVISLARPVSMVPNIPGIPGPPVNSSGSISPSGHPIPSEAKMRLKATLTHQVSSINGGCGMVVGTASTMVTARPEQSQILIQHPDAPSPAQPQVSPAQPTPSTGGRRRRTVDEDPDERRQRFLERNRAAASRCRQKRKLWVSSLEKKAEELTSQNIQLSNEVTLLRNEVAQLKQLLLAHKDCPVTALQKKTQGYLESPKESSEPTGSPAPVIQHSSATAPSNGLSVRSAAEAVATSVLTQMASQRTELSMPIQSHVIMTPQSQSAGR
Assay: co-IP; HDF cell lysates in IP-lysis buffer (50 mM Tris-HCl, 150 nM NaCl, 1 mM EDTA, 0.2% NP40, 10% glycerol) incubated with anti-ATF7 or control IgG; Protein-A-agarose beads; western blotting with anti-G9a

histone H3K9 dimethyltransferase G9a (from UniProt Q96KQ7 1-1210) (enzyme)
binding: binds
